{"source": "paper PMC9037480", "target": "T1, Tsr1-TAP (S. cerevisiae), Q07381", "T1 chain": "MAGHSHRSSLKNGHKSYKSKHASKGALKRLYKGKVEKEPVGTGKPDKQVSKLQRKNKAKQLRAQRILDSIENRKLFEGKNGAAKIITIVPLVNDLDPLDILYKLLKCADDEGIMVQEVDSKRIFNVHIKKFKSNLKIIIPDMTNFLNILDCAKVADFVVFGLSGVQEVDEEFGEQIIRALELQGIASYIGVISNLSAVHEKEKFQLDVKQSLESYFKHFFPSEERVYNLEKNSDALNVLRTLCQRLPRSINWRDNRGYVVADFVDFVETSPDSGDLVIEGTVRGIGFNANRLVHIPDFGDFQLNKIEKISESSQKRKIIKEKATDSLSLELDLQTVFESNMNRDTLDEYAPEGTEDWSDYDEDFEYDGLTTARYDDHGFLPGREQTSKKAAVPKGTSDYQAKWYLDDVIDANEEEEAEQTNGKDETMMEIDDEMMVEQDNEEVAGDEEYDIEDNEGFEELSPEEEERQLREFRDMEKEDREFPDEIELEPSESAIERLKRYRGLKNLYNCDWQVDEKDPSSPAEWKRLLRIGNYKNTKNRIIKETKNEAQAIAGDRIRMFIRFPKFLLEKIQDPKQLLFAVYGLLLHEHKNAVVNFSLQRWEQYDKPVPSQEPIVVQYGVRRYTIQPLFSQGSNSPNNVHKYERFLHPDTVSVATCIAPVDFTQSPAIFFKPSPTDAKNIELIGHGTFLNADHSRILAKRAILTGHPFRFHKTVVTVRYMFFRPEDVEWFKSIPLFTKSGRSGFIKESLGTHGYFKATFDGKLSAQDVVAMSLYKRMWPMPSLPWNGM", "experiment": "tandem affinity purification (TAP) with western blot; Tsr1-TAP as bait from yeast lysate of RPS15 wild-type, rps15-1-134 or rps15-RTH(77-79)>A backgrounds; IgG Sepharose, TEV elution, Calmodulin Sepharose, EGTA elution; 50 mM Tris-HCl pH 7.5, 100 mM NaCl, 1.5 mM MgCl2, 0.075% NP-40, 1 mM DTT; eluates analysed by western blot", "conditions": "remark: other sources report otherwise", "note": "These are yes or no findings as the source states them, for the method shown. Some results given as binding are weak or reduced against the parent protein; the word gives no strength.", "data": [{"binder": "Nob1, Q08444 1-459 (protein) MTENQTAHVRALILDATPLITQSYTHYQNYAQSFYTTPTVFQEIKDAQARKNLEIWQSLGTLKLVHPSENSIAKVSTFAKLTGDYSVLSANDLHILALTYELEIKLNNGDWRLRKKPGDALDASKADVGTDGKQKLTEDNKKEEDSESVPKKKNKRRGGKKQKAKREAREAREAENANLELESKAEEHVEEAGSKEQICNDENIKESSDLNEVFEDADDDGDWITPENLTEAIIKDSGEDTTGSLGVEASEEDRHVALNRPENQVALATGDFAVQNVALQMNLNLMNFMSGLKIKRIRNYMLRCHACFKIFPLPKDGKPKHFCASCGGQGTLLRCAVSVDSRTGNVTPHLKSNFQWNNRGNRYSVASPLSKNSQKRYGKKGHVHSKPQENVILREDQKEYEKVIKQEEWTRRHNEKILNNWIGGGSADNYISPFAITGLKQHNVRIGKGRYVNSSKRRS", "values": [{"measurement": "binding", "value": "binds"}]}]}
